# Values joined by “and” are separate entries in the source; they are usually repeats but may differ in a detail not shown here. Equal entries are not always repeated. This is one part of the list. For some assays here: Construct or isoform of the protein are uncertain.
# Tests used:
# Assay in all cases: protein microarray (ProtoArray v5.0), streptavidin-Alexa Fluor 647
# Settings in all cases: 3'-biotin; 20 mM Tris (pH 7.5), 5 mM MgCl2, 100 mM KCl, 0.1% Tween-20, A/T-rich and random oligonucleotide blockers; temperature not stated; high values mean tight binding
# [1] = tested on: SPAG8 (human)
# [2] = tested on: SPAG9 (human)
# [3] = tested on: SPCS2 (human)
# [4] = tested on: SPDEF (human)
# [5] = tested on: SPG20 (human)
# [6] = tested on: SPG21 (human)
# [7] = tested on: SPHK1 (human)
# [8] = tested on: SPN (human)
# [9] = tested on: SPP1 (human)
# [10] = tested on: SPRY domain-containing protein 4 (human)
# [11] = tested on: SPTB (human)
# [12] = tested on: SPTLC1 (human)
# [13] = tested on: SRR (human)
# [14] = target: T1, SS18L2 (UniProt Q9UHA2)
# T1 sequence: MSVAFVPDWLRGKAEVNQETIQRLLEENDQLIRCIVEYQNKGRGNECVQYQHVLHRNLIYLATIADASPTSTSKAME
# [15] = tested on: SSBP3 (human)
# [16] = tested on: SSPN (human)
# [17] = tested on: SSU72 (human)
# [18] = tested on: ST3GAL3 (human)
# [19] = tested on: STAM (human)
# [20] = tested on: STAMBP (human)
sequence,measurement,setting,value
GGGAGGCTGAGGCAGG [G4-1 biotinylated (PQS2)],binding signal,[1],-0.327 z-score
same,binding signal,[2],-0.334 z-score
same,binding signal,[3],-0.333 z-score
same,binding signal,[4],-0.34 z-score
same,binding signal,[5],-0.291 z-score
same,binding signal,[6],-0.375 z-score
same,binding signal,[7],-0.348 z-score
same,binding signal,[8],-0.34 z-score
same,binding signal,[9],-0.305 z-score
same,binding signal,[10],-0.293 z-score
same,binding signal,[11],-0.297 z-score
same,binding signal,[12],-0.324 z-score
same,binding signal,[13],-0.325 z-score
same,binding signal,[14],-0.347 z-score
same,binding signal,[15],-0.374 z-score and -0.31 z-score
same,binding signal,[16],-0.329 z-score
same,binding signal,[17],-0.298 z-score
same,binding signal,[18],-0.328 z-score
same,binding signal,[19],-0.31 z-score
same,binding signal,[20],-0.33 z-score

# Reformatted: results already given.
sequence | measurement | setting | value
GGGAGGCTGAGGCAGG [G4-1 biotinylated (PQS2)] | binding signal | [8] | -0.34 z-score
same | binding signal | [19] | -0.31 z-score

# From article PMC5996148
